Our source for the binding values is patent publication US20220273713A1, “METHOD OF INHIBITING OR ACTIVATING GAMMA DELTA T CELLS” (The University of Melbourne, priority 2019, published 2022).

Results are given in words; binding and its absence hold for the method and conditions named. Some binding calls cover weakened binding; strength is not graded here.

This test addresses T1, human BTNL8, isoform 1, on cells (human) (UniProt Q6UX41).
T1 sequence (looked up): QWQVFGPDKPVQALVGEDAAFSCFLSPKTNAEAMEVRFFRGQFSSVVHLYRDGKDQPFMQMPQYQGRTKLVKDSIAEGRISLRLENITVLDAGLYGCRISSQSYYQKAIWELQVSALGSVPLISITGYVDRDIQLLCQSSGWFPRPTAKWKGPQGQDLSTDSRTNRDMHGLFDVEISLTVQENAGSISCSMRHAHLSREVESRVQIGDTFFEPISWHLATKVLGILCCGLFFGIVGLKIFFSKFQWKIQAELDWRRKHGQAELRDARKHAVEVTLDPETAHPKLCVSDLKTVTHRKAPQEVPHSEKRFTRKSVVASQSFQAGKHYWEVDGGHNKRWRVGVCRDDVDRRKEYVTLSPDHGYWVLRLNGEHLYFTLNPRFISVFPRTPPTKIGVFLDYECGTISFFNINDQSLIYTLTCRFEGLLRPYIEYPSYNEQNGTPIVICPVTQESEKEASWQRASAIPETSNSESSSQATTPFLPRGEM
As to the kind of experiment: FRET between C-terminal CFP/YFP tags on co-transfected NIH-3T3 cells, flow cytometry (FIG. 5D, FIG. 20A).

B1: human BTNL3 (butyrophilin-like molecule 3), isoform 1, on cells (ligand, UniProt Q6UXE8 18-466, looked up)
chain: QWQVTGPGKFVQALVGEDAVFSCSLFPETSAEAMEVRFFRNQFHAVVHLYRDGEDWESKQMPQYRGRTEFVKDSIAGGRVSLRLKNITPSDIGLYGCWFSSQIYDEEATWELRVAALGSLPLISIVGYVDGGIQLLCLSSGWFPQPTAKWKGPQGQDLSSDSRANADGYSLYDVEISIIVQENAGSILCSIHLAEQSHEVESKVLIGETFFQPSPWRLASILLGLLCGALCGVVMGMIIVFFKSKGKIQAELDWRRKHGQAELRDARKHAVEVTLDPETAHPKLCVSDLKTVTHRKAPQEVPHSEKRFTRKSVVASQGFQAGKHYWEVDVGQNVGWYVGVCRDDVDRGKNNVTLSPNNGYWVLRLTTEHLYFTFNPHFISLPPSTPPTRVGVFLDYEGGTISFFNTNDQSLIYTLLTCQFEGLLRPYIQHAMYDEEKGTPIFICPVSWG
On to B1, for which the binding entry is given as “binds”.
